Values of other authors, collected in patent US20160130234A1, “PHARMACEUTICAL COMPOSITIONS BASED ON PHOTOCHEMICALLY STABLE SILVER COMPLEXES, CHLOREXIDINE AND CATIONIC SURFACTANTS” (PAVIA FARMACEUTICI S.R.L., priority 2013, published 2016).
At least one compound was matched to its structure with a doubt left.

Tested on: Staphylococcus epidermidis
Details: cited from earlier work

Compound | development of resistance by Staphylococcus epidermidis
CO[C@H]1/C=C/O[C@@]2(C)Oc3c(C)c(O)c4c(O)c(c(/C=N/N5CCN(C)CC5)c(O)c4c3C2=O)NC(=O)/C(C)=C\C=C\[C@H](C)[C@H](O)[C@@H](C)[C@@H](O)[C@@H](C)[C@H](OC(C)=O)[C@@H]1C [rifampicin] | developed resistance
CN(C)c1ccc(O)c2c1C[C@H]1C[C@H]3[C@H](N(C)C)C(O)=C(C(N)=O)C(=O)[C@@]3(O)C(O)=C1C2=O [minocycline] | developed resistance
